Measured values as given in PubChem BioAssay (NCATS).
This is one part of the list. These are further read-outs of the screen, such as a control signal, another cell line or another target. No call is given for them. Compounds called inactive in the main read-out are mostly missing here. Words in brackets tell the shape of the fitted curve; partial curves, single points and poor fits give uncertain potencies.

Experiment: A High-Content qHTS Against Drug Library for the Identification of Small Molecules that Inhibit DYT1 Early Onset Primary Dystonia-Associated Cell Pathology (AID 1645839)
Conditions: HEK293 Flp-In EGFP-delE TorsinA, punctate imaging, 48 h; measured here: cell count cytotoxicity
Procedure, shortened: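 Cells were seeded and left for 24 h, then dosed with compound alongside tetracycline induction of mutant EGFP-TorsinA. They were incubated for 48 h, fixed in 4% paraformaldehyde, permeabilized and imaged for mislocalization (%pathology) and cell count.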

| SMILES | AC50 |
| --- | --- |
| C/C(=C(\CCOP(=O)(O)O)SC(=O)c1ccccc1)N(C=O)Cc1cnc(C)nc1N | 1.12 µM [falling, partial curve, poor fit] |
| COc1cc(/C=C/C(=O)O[C@H]2CC[C@]34C[C@]35CC[C@]3(C)[C@@H]([C@H](C)CCC=C(C)C)CC[C@@]3(C)[C@@H]5CC[C@H]4C2(C)C)ccc1O | 22.4 µM [rising, single point] |
| CC(COc1ccccc1)NC(C)C(O)c1ccc(O)cc1 (stereo not given) | 10 µM [falling, partial curve, poor fit] |
| COc1ccc(-c2cc(=O)c3c(O)cc(O[C@@H]4O[C@H](CO[C@@H]5O[C@@H](C)[C@H](O)[C@@H](O)[C@H]5O)[C@@H](O)[C@H](O)[C@H]4O)cc3o2)cc1O | 11.2 µM [falling, single point] |
| [Cl][In]([Cl])[Cl] | 22.4 µM [falling, partial curve, poor fit] |
| CCC(CN)=C(c1ccccc1)c1ccccc1 | 7.08 µM [falling, partial curve, poor fit] |
| Nc1ccc(S(=O)(=O)Nc2ccccc2)cc1 | 15.8 µM [falling, single point] |
| CC(C)=CCNc1ncnc2c1ncn2[C@@H]1O[C@H](CO)[C@@H](O)[C@H]1O | 3.16 µM [falling, full curve] |
| Cc1coc2ccccc2c1=O | 35.5 µM [rising, single point] |
| C#C[C@]1(OC(C)=O)CC[C@H]2[C@@H]3CCC4=C/C(=N/O)CC[C@@H]4[C@H]3CC[C@@]21CC | 35.5 µM [falling, partial curve, poor fit] |

Laid out differently: two of the compounds above
COc1ccc(-c2cc(=O)c3c(O)cc(O[C@@H]4O[C@H](CO[C@@H]5O[C@@H](C)[C@H](O)[C@@H](O)[C@H]5O)[C@@H](O)[C@H](O)[C@H]4O)cc3o2)cc1O
  AC50: 11.2 µM [falling, single point]
Nc1ccc(S(=O)(=O)Nc2ccccc2)cc1
  AC50: 15.8 µM [falling, single point]
